From patent US11254640B2, “N-substituted indoles and other heterocycles for treating brain disorders” (The Regents of the University of California, priority 2019, dated 2022)
Some results were stated once for a whole list of compounds, not compound by compound.

System: cortical neurons
Assay: Dendritogenesis assay, Sholl analysis
Format: cell-based, rat
Details: concentration-response (FIG. 6)
Excerpt: Dendritogenesis Assays. Phenotypic screening has historically proven more successful than target-based approaches for identifying drugs with novel mechanisms of action. Having established a simple and robust method for accessing isoDMT analogs, tested next was their ability to increase dendritic arbor complexity in cultures of cortical neurons using a phenotypic assay. Following treatment, neurons were fixed and visualized using an antibody against MAP2—a cytoskeletal protein localized to the somatodendritic compartment of neurons. Sholl analysis was then performed, and the maximum number of crossings (Nmax) was used as a quantitative metric of dendritic arbor complexity. For statistical comparisons between specific compounds, the raw Nmax values were compared. Percent efficacies were determined by setting the Nmax values for the vehicle (DMSO) and positive (ketamine) controls equal to 0% and 100%, respectively.
Animals. For the dendritogenesis experiments, timed pregnant Sprague Dawley rats were obtained from Charles River Laboratories (Wilmington, Mass.). For the head-twitch response assay, male and female C57BL/6J mice were obtained from Jackson Laboratory (Sacramento, Calif.). Mice were housed in a temperature and humidity-controlled room maintained on a 12-h light/dark cycle in groups of 4-5 (same sex). Animals weighed between 17 and 30 g at the time of the experiments. […]

Compound | concentration at which dendritic arbor complexity is still increased [nM]
COc1ccc2ccn(CCN(C)C)c2c1 [Example 5, 2-(6-methoxy-1H-indol-1-yl)-N,N-dimethylethan-1-amine] | ≤ 1
CN(C)CCn1ccc2ccccc21.O=C(O)/C=C/C(=O)O [Example 2, 2-(1H-indol-1-yl)-N,N-dimethylethan-1-amine] | ≤ 1
